The values below come from doi:10.1101/2021.05.30.446361.

Protein sequences, listed by entry. Tags and fused reporters are not part of them. Lines headed by an entry give the natural chain unless they say otherwise; changes in a name come on top.
UniProt Q6ZTU2: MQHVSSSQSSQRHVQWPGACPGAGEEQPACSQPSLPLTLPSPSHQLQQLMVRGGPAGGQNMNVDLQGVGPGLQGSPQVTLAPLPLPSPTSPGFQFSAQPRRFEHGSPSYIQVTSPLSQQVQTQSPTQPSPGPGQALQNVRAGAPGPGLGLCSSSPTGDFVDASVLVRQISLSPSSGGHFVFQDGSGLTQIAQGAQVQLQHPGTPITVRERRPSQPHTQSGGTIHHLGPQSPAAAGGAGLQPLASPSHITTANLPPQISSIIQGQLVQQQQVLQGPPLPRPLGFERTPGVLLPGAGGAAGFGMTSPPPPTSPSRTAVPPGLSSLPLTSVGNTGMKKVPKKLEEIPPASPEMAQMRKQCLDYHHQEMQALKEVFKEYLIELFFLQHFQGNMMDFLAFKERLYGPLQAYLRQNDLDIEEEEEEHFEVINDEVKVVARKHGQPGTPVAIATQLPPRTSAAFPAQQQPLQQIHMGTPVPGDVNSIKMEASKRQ
UniProt Q96L91: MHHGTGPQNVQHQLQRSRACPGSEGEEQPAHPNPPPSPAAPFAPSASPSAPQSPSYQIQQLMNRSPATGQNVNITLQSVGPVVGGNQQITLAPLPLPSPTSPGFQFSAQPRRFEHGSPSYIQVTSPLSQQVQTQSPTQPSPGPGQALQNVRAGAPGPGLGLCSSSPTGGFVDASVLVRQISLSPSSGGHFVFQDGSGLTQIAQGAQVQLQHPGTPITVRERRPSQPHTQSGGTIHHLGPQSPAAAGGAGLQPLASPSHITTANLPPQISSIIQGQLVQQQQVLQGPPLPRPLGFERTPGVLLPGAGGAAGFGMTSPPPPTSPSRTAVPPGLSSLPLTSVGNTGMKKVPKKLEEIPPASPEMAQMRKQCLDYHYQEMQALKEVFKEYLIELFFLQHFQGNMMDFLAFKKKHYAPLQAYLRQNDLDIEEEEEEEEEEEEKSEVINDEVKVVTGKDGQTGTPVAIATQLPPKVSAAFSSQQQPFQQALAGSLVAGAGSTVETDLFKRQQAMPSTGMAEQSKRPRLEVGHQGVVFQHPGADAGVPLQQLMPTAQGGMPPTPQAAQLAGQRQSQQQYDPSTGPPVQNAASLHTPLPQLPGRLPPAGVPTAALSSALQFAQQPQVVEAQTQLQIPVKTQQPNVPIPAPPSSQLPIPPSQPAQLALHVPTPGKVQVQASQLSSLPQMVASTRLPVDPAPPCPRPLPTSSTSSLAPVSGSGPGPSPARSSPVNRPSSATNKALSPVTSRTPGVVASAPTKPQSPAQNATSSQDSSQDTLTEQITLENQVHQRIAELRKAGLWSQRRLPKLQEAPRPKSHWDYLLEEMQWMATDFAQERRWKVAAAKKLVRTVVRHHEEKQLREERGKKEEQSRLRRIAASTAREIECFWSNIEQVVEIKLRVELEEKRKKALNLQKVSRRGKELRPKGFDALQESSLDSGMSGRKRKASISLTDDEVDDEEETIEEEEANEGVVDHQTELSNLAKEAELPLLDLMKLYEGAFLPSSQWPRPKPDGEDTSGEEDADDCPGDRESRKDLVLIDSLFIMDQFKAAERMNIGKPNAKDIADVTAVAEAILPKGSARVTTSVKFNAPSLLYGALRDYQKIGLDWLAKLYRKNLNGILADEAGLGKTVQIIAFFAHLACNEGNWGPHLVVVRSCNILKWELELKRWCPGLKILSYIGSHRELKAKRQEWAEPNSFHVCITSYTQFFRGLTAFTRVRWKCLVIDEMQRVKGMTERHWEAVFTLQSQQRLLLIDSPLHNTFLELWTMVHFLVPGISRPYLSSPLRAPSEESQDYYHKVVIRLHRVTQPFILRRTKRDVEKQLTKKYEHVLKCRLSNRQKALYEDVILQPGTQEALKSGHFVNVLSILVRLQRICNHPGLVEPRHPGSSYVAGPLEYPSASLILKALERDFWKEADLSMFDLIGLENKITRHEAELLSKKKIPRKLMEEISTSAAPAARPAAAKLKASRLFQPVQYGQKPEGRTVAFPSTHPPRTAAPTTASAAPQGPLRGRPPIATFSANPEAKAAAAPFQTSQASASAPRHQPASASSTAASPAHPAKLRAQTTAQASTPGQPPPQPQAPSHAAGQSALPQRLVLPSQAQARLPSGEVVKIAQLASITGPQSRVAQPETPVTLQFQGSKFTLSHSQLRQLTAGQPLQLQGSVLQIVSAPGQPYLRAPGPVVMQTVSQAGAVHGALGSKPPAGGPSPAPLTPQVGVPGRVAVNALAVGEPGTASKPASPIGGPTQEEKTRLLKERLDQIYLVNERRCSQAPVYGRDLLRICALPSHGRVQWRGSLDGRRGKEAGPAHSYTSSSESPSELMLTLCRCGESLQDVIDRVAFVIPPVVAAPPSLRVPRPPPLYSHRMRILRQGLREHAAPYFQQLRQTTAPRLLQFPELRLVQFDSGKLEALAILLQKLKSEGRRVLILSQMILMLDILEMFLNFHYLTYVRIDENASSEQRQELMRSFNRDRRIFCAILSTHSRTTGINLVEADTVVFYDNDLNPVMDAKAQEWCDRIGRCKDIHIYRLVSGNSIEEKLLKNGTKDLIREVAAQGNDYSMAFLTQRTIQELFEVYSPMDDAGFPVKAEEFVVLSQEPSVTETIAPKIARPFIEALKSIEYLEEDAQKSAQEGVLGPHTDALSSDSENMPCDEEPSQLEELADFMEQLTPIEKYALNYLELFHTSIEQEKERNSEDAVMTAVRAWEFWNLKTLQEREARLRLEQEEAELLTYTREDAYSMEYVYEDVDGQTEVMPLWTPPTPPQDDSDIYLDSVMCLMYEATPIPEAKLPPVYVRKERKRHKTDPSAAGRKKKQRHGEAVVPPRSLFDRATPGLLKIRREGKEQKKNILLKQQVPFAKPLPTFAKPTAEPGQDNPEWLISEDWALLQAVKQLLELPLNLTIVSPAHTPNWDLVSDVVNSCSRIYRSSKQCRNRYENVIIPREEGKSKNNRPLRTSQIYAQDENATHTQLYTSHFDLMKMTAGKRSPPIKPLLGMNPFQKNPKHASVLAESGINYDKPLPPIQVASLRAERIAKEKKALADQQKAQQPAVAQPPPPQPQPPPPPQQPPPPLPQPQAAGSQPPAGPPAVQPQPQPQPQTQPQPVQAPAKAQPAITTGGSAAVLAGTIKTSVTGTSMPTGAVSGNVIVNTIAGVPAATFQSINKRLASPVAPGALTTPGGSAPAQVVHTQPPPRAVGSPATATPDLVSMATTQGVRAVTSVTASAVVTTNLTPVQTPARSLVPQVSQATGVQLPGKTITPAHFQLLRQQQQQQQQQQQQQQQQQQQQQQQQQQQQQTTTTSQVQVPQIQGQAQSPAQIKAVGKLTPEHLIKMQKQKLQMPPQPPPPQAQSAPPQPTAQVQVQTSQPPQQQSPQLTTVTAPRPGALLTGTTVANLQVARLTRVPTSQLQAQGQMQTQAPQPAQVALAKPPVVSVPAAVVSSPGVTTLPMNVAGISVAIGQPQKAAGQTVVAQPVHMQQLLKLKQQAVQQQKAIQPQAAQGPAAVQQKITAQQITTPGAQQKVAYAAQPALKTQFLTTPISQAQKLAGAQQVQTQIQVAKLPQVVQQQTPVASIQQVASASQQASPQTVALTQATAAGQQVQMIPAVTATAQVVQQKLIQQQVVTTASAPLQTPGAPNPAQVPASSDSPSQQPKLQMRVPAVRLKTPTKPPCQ
UniProt P51532: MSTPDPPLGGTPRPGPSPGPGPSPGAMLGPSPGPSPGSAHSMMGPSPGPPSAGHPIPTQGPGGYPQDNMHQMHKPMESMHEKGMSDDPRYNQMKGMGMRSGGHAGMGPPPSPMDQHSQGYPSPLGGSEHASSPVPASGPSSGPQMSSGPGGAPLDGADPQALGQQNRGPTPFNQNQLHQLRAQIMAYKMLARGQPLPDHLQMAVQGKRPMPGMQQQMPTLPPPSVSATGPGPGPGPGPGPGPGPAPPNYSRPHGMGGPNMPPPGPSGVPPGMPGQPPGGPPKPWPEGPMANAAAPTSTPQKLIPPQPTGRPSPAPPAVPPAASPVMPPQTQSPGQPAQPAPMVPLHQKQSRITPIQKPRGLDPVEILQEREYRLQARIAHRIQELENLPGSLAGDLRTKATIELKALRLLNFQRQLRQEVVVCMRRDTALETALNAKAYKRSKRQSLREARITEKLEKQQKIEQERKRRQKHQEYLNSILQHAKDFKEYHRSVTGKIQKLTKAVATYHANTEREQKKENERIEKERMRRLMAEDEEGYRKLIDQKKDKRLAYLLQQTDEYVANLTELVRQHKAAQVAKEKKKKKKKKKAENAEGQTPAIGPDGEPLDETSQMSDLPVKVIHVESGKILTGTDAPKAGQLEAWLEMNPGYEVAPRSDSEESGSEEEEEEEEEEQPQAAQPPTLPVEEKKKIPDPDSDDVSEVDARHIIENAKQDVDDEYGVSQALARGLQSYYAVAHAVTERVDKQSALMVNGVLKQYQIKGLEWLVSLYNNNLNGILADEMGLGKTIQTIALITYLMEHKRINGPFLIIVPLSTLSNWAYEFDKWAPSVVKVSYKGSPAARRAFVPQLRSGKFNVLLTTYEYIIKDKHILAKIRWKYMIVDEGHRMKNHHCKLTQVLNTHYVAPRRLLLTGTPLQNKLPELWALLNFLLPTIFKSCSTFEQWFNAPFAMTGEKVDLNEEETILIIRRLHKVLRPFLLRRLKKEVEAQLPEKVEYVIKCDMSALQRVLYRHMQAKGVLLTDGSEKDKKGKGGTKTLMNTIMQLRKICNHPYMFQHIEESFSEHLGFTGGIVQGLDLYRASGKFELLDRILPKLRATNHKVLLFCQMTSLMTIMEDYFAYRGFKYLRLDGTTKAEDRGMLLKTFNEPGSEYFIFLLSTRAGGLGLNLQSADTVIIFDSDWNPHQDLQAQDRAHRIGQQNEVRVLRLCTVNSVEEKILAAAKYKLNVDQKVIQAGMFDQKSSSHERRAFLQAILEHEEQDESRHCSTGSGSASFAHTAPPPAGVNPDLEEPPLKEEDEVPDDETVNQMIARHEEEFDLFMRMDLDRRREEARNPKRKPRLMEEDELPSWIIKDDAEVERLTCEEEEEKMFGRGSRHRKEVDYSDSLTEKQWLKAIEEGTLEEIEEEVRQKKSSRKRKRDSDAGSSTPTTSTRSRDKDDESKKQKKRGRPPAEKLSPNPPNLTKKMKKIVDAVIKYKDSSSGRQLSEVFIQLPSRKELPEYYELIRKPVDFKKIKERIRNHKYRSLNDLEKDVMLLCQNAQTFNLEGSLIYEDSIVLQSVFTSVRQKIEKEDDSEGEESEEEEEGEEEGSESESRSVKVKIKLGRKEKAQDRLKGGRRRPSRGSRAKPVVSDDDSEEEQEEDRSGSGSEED
UniProt Q92993: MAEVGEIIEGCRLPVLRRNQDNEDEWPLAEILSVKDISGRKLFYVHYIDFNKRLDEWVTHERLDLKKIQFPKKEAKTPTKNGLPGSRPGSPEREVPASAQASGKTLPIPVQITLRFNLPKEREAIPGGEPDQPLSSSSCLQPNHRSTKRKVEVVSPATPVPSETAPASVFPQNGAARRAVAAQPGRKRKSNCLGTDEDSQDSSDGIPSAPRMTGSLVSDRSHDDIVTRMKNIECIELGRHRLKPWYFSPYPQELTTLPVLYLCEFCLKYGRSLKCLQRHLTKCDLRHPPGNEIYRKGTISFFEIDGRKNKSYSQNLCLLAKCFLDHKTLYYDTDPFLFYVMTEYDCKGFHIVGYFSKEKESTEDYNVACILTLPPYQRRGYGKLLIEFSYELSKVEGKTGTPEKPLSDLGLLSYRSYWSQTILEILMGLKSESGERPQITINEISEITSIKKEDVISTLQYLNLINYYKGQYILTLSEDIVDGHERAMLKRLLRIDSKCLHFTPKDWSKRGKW
UniProt O95619: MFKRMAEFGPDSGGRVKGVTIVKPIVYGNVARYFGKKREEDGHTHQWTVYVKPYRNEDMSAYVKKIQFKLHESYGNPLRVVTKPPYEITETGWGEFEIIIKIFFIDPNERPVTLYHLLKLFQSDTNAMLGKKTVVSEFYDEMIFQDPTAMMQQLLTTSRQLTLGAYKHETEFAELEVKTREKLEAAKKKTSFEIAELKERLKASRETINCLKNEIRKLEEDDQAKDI
UniProt Q9NPF5: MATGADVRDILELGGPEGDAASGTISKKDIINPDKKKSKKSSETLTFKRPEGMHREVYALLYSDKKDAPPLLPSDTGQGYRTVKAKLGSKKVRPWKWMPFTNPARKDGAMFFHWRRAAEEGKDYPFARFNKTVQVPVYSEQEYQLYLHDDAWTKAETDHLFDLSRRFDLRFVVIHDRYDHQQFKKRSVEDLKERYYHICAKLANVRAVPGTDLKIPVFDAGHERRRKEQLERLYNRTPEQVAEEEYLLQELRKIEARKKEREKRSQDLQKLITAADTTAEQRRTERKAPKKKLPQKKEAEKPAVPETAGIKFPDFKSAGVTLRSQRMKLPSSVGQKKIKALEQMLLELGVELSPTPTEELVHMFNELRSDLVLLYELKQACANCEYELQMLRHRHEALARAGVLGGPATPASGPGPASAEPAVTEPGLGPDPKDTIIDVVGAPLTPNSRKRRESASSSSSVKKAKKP

Results are given in words; binding and its absence hold for the method and conditions named. In cells and extracts the contact can be indirect. A yes stands for co-enrichment or nearness to the bait. Other partners may have been found. No binding means not detected with the bait.

In the test the target is TAP-tagged EP400NL (EP400 N-terminal-Like) (human) (UniProt Q6ZTU2). The test can be described thus: affinity purification with mass spectrometry.
In the case of “EP400 ATPase (E1A binding protein) (from UniProt Q96L91 1-3159)”, the binding entry is “no binding”.

For “BRG1, core ATPase subunit of the human SWI/SNF chromatin remodelling complexes (from UniProt P51532 1-1647)”, the binding entry is given as “binds”. Then “TRRAP (Transformation/transcription domain-associated protein) (from UniProt Q9Y4A5 1-3859)”, with “no binding”; and “BRD8 (Bromodomain-containing protein 8) (from UniProt Q9H0E9 1-1235)”, with “binds”. “TIP60 histone acetyltransferase (endogenous) (from UniProt Q92993 1-513)”: the binding entry is given as “no binding”.

Take YEATS4 (from UniProt O95619 1-227): the binding result is recorded as “binds”. Then “DMAP1 (endogenous) (from UniProt Q9NPF5 1-467)”, with “binds”.
